Measurements from PMC6925144, “A prospective compound screening contest identified broader inhibitors for Sirtuin 1” (Scientific Reports, 2019).
The full ranking holds about 3,200 compounds; the median of “TSA(without NAD+) / Primary screening (TSA) / delta Tm (K)” is about -0.07, and the highest 2% start at about 0.37. The list shows a part of the results.

Chains of the proteins cited; added tags and fusions are not shown. Residues count along the entry.
UniProt Q96EB6, 2-747 limits assumed: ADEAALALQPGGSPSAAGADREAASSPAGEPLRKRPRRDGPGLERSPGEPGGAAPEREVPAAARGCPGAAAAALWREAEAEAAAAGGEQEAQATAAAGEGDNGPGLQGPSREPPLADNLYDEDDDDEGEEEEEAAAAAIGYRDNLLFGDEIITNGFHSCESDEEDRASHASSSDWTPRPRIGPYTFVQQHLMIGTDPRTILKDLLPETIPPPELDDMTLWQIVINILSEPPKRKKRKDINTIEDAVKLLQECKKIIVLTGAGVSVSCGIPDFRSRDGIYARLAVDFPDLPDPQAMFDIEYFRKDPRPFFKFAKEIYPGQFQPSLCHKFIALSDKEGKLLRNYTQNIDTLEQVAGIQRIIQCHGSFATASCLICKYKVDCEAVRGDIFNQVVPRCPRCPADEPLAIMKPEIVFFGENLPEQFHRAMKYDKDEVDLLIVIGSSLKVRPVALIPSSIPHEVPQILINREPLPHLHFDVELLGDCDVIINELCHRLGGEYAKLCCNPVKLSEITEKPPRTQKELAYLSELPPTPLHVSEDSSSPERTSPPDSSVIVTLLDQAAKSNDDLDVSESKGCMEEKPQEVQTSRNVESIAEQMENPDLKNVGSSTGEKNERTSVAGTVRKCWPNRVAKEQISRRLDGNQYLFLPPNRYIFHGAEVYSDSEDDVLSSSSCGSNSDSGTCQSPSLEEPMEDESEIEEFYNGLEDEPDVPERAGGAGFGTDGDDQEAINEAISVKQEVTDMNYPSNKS

Each molecule was assayed against NAD-dependent deacetylase Sirtuin 1 (human, UniProt Q96EB6) (assay: primary screen, delta tm). Conditions: 10 µM.
Design: single well (n = 1)
Outline: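 Thermal shift of Sirtuin 1 measured without NAD+, compound at 10 µM (n = 1); value is ΔTm, with hits defined as ΔTm > 0.45 K or < −1.5 K. Hits retested at 5, 10, 20 µM (n = 4) and counterscreened on bovine carbonic anhydrase and ABL1 SH2 domain.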

SMILES | TSA(without NAD+) / Primary screening (TSA) / delta Tm (K)
Cc1nc(N2CCN(CC3CCCO3)CC2)c2c(-c3ccccc3)csc2n1 (centres unmarked) | -0.05 K
Cc1ccc(C(=O)NNC(=O)c2cccc(S(=O)(=O)N(C)c3ccc(C)cc3)c2)cc1 | -0.14 K
O=C(NCc1nnc2n1-c1ccccc1CC2)c1ccc2ccccc2c1 | 0.02 K
Cc1ccc2[nH]c(C(=O)O)c(C)c2c1 | -0.11 K
Cc1c(C(=O)NCc2nnc3n2CCC3)oc2ccc(Cl)cc12 | 0.27 K
Cc1ccc(S(=O)(=O)Nc2ccc(F)cc2)cc1C(=O)NCc1cccc(NC(=O)C2CC2)c1 | 0.08 K
O=C(CCc1nc2ccccc2c(=O)[nH]1)Nc1ccc(N2CCN(Cc3ccccc3)CC2)cc1 | -0.12 K
CCCCn1ccnc1C(=O)c1cccc(S(=O)(=O)N(C)c2ccccc2)c1 | -0.02 K
CC(C)(C)OC(=O)N1CCCCC1CNc1cnc2ccccc2n1 (centres unmarked) | -0.04 K
O=C(O)CCCCCN1C(=O)/C(=C/c2cccc3ccccc23)SC1=S | -0.03 K
NC(=O)C1CCN(Cc2nc3cc(Cl)ccc3c(=O)[nH]2)CC1 | 0.02 K
CN(Cc1nc2ccccc2s1)C(=O)CSc1nnc(-c2cccnc2)n1C1CC1 | 0.29 K
Cc1ccc(C23CC4CC(CC(C(=O)OCC(=O)Nc5ccc6c(c5)OCO6)(C4)C2)C3)cc1 | 0.36 K
CN(C(=O)CSc1ncnc2c1cnn2C)C1CCCc2ccccc21 (centres unmarked) | -0.04 K
O=c1c2ccccc2n2c(SCc3nnc(-c4cccs4)o3)nnc2n1-c1ccccc1 | -0.08 K
Cc1ccc(CCNC(=O)CNC(=O)c2cc3ccccc3[nH]2)cn1 | 0.17 K
CC(=O)c1cc(Cl)ccc1OCc1cc(=O)n2ccccc2n1 | 0.05 K
CC(C)(N)CCN | -0.14 K
NC(=O)C1CCN(C(=O)/C=C/c2ccc(-c3ccccc3F)o2)C1 (centres unmarked) | -0.12 K
COc1ccc(C2C(C(=O)c3ccc(OC)c(OC)c3)=C(O)C(=O)N2CCCN2CCOCC2)cc1 (centres unmarked) | -0.05 K
CCOC(=O)CN(Cc1ccccc1)Cc1cc(=O)c(OC)co1 | -0.13 K
O=C([O-])COCCO | -0.27 K
NC(=O)c1cc(NC(=O)CN2CCN(c3ccccc3O)CC2)cc(C(N)=O)c1 | 0.07 K

SMILES | TSA(without NAD+) / Primary screening (TSA) / delta Tm (K)
N#CC(C(=O)c1ccc(NS(=O)(=O)c2ccccc2)cc1)c1nc(-c2ccccn2)cs1 (centres unmarked) | 0.46 K
CN1C(=O)N(CC(=O)O)C(=O)C12CCCCC2 | -0.02 K
CN(C)/C=N/c1ncnc2c1cnn2-c1ccccc1 | -0.04 K
Cc1ccc(C(=O)N2CCC(C(=O)Nc3ccccc3)CC2)cc1S(=O)(=O)NCc1ccccc1 | -0.02 K
CC(NC(=O)COC(=O)c1cccc(S(=O)(=O)NCc2ccccc2)c1)C12CC3CC(CC(C3)C1)C2 (centres unmarked) | -0.08 K
CC(C)COc1ccc(C(=O)C2=C(O)C(=O)N(CCN3CCOCC3)C2c2ccncc2)cc1 (centres unmarked) | -0.03 K
N#Cc1cc(O)cc(C(=O)OCC(=O)NC2(C#N)CCCCC2)c1 | -0.08 K
Cc1ccc(N(C)S(=O)(=O)c2cccc(C(=O)Nc3sc4c(c3C(N)=O)CCCC4)c2)cc1 | -0.12 K
Cc1ccc(C(=O)N(C)C)cc1OC(=O)c1ccc2[nH]c(C(F)F)nc2c1 | 0.18 K
Cc1ccc(C(=O)NCC(=O)N2CC=C(c3c[nH]c4cc(F)ccc34)CC2)s1 | 0.07 K
Cc1cc(CN2CCN(S(=O)(=O)c3cc(C(N)=O)n(C)c3)CC2)on1 | -0.13 K
COc1ccc(NN=C2C(=O)NC(=S)NC2=O)cc1 | -0.21 K
Nc1ncnc2c1ncn2[C@@H]1O[C@H](CO)[C@@H](O)[C@H]1O | -0.13 K
CCc1cc(C(=O)Nc2cc(C(N)=O)ccc2N2CCCC2)sc1C | -0.04 K
Cc1cccc(CN2CCN(C(=O)COC(=O)c3ccc(C(N)=O)cc3)CC2)c1 | -0.02 K
CC(=O)Nc1ccc(NCc2nnc3n(C)c(=O)c4ccccc4n23)cc1 | -0.07 K
O=C(CSc1nnc(NCc2ccco2)s1)N1CCN(C/C=C/c2ccccc2)CC1 | 0.02 K
COc1ccc(OC)c(N(CC(=O)NN=C2CCC(C(C)(C)C)CC2)S(=O)(=O)c2ccc(OC)c(OC)c2)c1 (centres unmarked) | 0.09 K
COc1ccc(N(C)S(=O)(=O)c2cccc(C(=O)OCCN3C(=O)c4ccccc4C3=O)c2)cc1 | -0.13 K
O=C(Nc1cccc(S(=O)(=O)N2CCOCC2)c1)c1cn(-c2ccccc2)nc1-c1ccccc1 | -0.02 K
CCc1cc(O)nc(Cn2c(N)nc(C#N)c2C#N)n1 | -0.21 K
O=C1NC(=S)NC(=O)C1=Cc1cn(-c2ccccc2)nc1-c1cc2ccccc2oc1=O | -0.18 K
CC(NCC(=O)NCC(=O)Nc1ccc(F)cc1)c1cccs1 (centres unmarked) | -0.08 K

Shown with each value named: entries from further up.
CC(C)(C)OC(=O)N1CCCCC1CNc1cnc2ccccc2n1 (centres unmarked)
  TSA(without NAD+) / Primary screening (TSA) / delta Tm (K): -0.04 K
O=C(O)CCCCCN1C(=O)/C(=C/c2cccc3ccccc23)SC1=S
  TSA(without NAD+) / Primary screening (TSA) / delta Tm (K): -0.03 K
NC(=O)C1CCN(Cc2nc3cc(Cl)ccc3c(=O)[nH]2)CC1
  TSA(without NAD+) / Primary screening (TSA) / delta Tm (K): 0.02 K

(more compounds)

SMILES | TSA(without NAD+) / Primary screening (TSA) / delta Tm (K)
COc1ccc(NC(=O)c2ccccc2NC(=O)COC(=O)C23CC4CC(CC(O)(C4)C2)C3)cc1 | 0.19 K
CCN1CCN(Cc2ccc(CNC(=O)OCC(F)(F)F)cc2)CC1 | -0.01 K
COc1ncnc2c1CN(Cc1nc(-c3ccccc3)oc1C)CC2 | -0.01 K
COCCOc1cccc(Br)c1 | -0.04 K
Nc1nsc(N2CCN(c3nc(C4CC4)nc4sc5c(c34)CCCC5)CC2)n1 | -0.07 K
COc1ccc(-c2nnc(S)n2CC(=O)Nc2ccc(C(N)=O)cc2)cc1 | -0.01 K
O=C(COC(=O)c1cc(-c2ccc(Cl)cc2)nc2ccccc12)NNC(=O)c1cccs1 | -0.01 K
COc1ccc2c(C=C3C(=O)NC(=S)NC3=O)cccc2c1 | -0.22 K
O=C(Cn1[nH]c(=O)c2ccccc2c1=O)Nc1ccc(N2CCN(Cc3ccccc3)CC2)cc1 | 0.02 K
CCCCn1nnnc1COC(=O)c1cccc(S(=O)(=O)N(C)c2ccc(OC)cc2)c1 | -0.02 K
CCCCCCc1cc2c3c(c(=O)oc2cc1OCC(N)=O)CCC3 | 0.19 K
CN(C)c1ccc(CCC(=O)N2CCN(c3cnccn3)CC2)cc1 | -0.14 K
Cc1nc2cc(NC(=O)CCNC(=O)/C=C/c3ccccc3)ccc2o1 | -0.18 K
Cc1cc(C)n2nc(C(=O)Nc3cc(C(N)=O)cc(F)c3C)nc2n1 | -0.18 K
C=CCn1c(SCC(=O)NCc2ccccc2F)nc2ccsc2c1=O | 0.09 K
O=C(CN1CCN(c2ncnc3c2oc2ccccc23)CC1)c1cccs1 | -0.17 K
OCC1CCN(c2ncnc3ccsc23)CC1 | -0.14 K
Cc1nc(-c2cccnc2)nc(NCC2CCOC2)c1C (centres unmarked) | -0.01 K
O=C1CC(c2ccccc2)c2ccc3ccccc3c2N1 (centres unmarked) | -0.07 K
Cc1cc(S(=O)(=O)NCc2ccc(C(N)=O)cc2)sc1Cl | -0.11 K
O=C(Cc1n[nH]c(=O)c2ccccc12)Nc1ccc(N2CCN(Cc3ccccc3)CC2)cc1 | -0.03 K
CC1=NN(c2ccccc2)C(=O)/C1=C\c1cn(-c2ccccc2)nc1-c1cc2ccccc2oc1=O | -0.02 K
Cc1sc2nc(CSc3ccccc3)nc(N3CCC(C(N)=O)CC3)c2c1C | 0.52 K

SMILES | TSA(without NAD+) / Primary screening (TSA) / delta Tm (K)
O=C(Nc1cc(Br)c(F)cc1Cl)C1CCCO1 (centres unmarked) | 0.19 K
O=C(CN1CCN(C(=O)c2ccccc2Oc2ccccc2)CC1)Nc1ccccc1Cl | -0.18 K
CC(NS(=O)(=O)c1ccc(C(N)=O)cc1)c1cc(F)c(Cl)cc1Cl (centres unmarked) | 0.09 K
COc1ccc(OC)c(/C=C2/Oc3cc(O)ccc3C2=O)c1 | -0.02 K
Cc1ccc(-c2sc(-c3ccccc3)nc2CC(=O)N/N=c2/sc3ccccc3n2C)cc1 | -0.08 K
COc1cc(Br)c(/C=C2/Oc3cc(O)ccc3C2=O)cc1O | 0.08 K
NC(=O)C1CCN(CC(=O)Nc2cc(C3CCCC3)nn2-c2ccccc2)CC1 | -0.02 K
NC1=C(c2nc3ccccc3[nH]2)C(=O)CN1c1ccc(CC(=O)O)cc1 | -0.14 K
CC(=O)c1ccc(F)cc1NC(=O)C1CCCOC1 (centres unmarked) | -0.07 K
Cc1cc(C(=O)COC(=O)c2ccc(C(N)=O)cc2)c(C)n1CC1CCCO1 (centres unmarked) | -0.04 K
N#CC(C(=O)CN1CCN(Cc2ccccc2)CC1)c1ccccc1 (centres unmarked) | -0.02 K
O=C(NC(=S)Nc1ccc(-c2nc3ccccc3[nH]2)cc1)C12CC3CC(CC(C3)C1)C2 | 0.58 K
Cn1c(-c2ccccc2)c(C(=O)N2CCCC2)c2ccccc21 | 0.16 K
O=C(O)c1ccc2[nH]c3c(c2c1)CNCC3 | -0.03 K
CC(O)CN1CCC(CN(C)Cc2cccc(C(N)=O)c2)CC1 (centres unmarked) | 0.13 K
NC(=O)CC1CCN(C(=O)CCc2c[nH]c3ccccc23)CC1 | -0.03 K
CC(=O)Nc1ccc(NC(=O)c2ccccc2SCC(=O)NC23CC4CC(CC(C4)C2)C3)cc1 | -0.21 K
CCN1CCC(N)C1 (centres unmarked) | 0.08 K
COc1ccc(N(C)S(=O)(=O)c2cccc(C(=O)Nc3ccc(Br)c(C(F)(F)F)c3)c2)cc1 | 0.62 K
CC(C)NS(=O)(=O)NC(C)C(=O)NCCc1c[nH]c2ccccc12 (centres unmarked) | -0.05 K
